Values from PubChem BioAssay AID652272 (Drosophila RNAi Screening Center, 2013).
The deposit covers about 21,000 reagents; this is a random part of those with a known target gene and a result. Of all reagents, 503 (2.4%) were called active. 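Raw plate light values, not normalised; calls rest on replicate z-scores that were not deposited; hits include reporter decreases as well as increases.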 A number with no mark means an inactive call. Names joined by + are all predicted targets of the reagent. Not given: the amount of reagent, the time to read-out.

Purpose: 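Genes whose knock-down decreases or increases Hedgehog reporter output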 (primary screen)
System: Drosophila clone 8 (Cl8) cells
Reagent: long dsRNA against Drosophila genes
Read-out: 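Plate reader light from a firefly reporter under a ptc promoter fragment that responds to Hedgehog, with Renilla light as transfection reference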
Scale: firefly Hh reporter signal: higher = more ptc reporter light; Renilla reference signal: higher = more Renilla control light
Call rule: 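Called a hit if the two-replicate mean z-score lies below -2 or above +3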
Meaning of the calls: active = hit: reporter lowered or raised; inactive = not a hit

predicted target	dsRNA	firefly Hh reporter signal, replicate 1	firefly Hh reporter signal, replicate 2	firefly Hh reporter signal, replicate 3	Renilla reference signal, replicate 1	Renilla reference signal, replicate 2
Nhe1	DRSC00762	1.45e5	1.47e5		5634	5233
Or67c	DRSC11242	77787	60604	51194	4807	3907
l(2)09851	DRSC04858	1.06e5	97024		1981	7552
hpRNA:CR32205	DRSC09610	2.10e5			5379	
hpRNA:CR32205	DRSC09890	86352	97665		3184	2674
CG9259	DRSC03174	79616	58065		1776	5157
Abd-B	DRSC14098	92157	1.05e5		2628	2598
Abd-B	DRSC14337	68032	52626		1968	1488
CG13843	DRSC14693	5.32e5	1.00e5		28859	2788
CG5721	DRSC06945	1.11e5	71184		5474	2829
CG15212	DRSC10212	53312	27130		7832	3085
Eaf6	DRSC09901	66775	52746		6869	3753
CG14958	DRSC08417	42422	19608		1794	577
Papst2	DRSC10924	91994	78168		3906	3149
stck	DRSC17070	74816	1.20e5		2104	3464
Atg13	DRSC16228	81228	1.71e5		3120	4808
Reg-2	DRSC08690	1.30e5	69238		5257	3136
CG16800	DRSC02518	1.40e5	62438		3429	5819
CG43121	DRSC10457	77665	55926		3197	2485
CG10651	DRSC02086	85249	40397		2493	3783
Vm26Ac	DRSC02329	1.53e5	62440		3872	6635
CG30427	DRSC04014	1.27e5	1.84e5		3058	7605
CG30427	DRSC04311	1.12e5	1.06e5		4531	4214
CG30427	DRSC04323	96400	39418		2285	2388
CG18568	DRSC06768	61216	70870		2966	3030
SLC5A11	DRSC03088	55816	40042		2551	1677
CG31266	DRSC15747	62019	96976		1712	2819
Pglym87	DRSC15252	1.54e5	99639		6688	4167
Obp19b	DRSC20536	67064	1.92e5		1968	9105
CenG1A	DRSC02538	1.11e5	52552		3337	5874
CenG1A	DRSC03505	1.64e5	68467		4348	6299
CenG1A	DRSC03506	1.02e5	51397		2949	4966
CG31441	DRSC15723	73930	94425		2224	2397
ND-24L	DRSC10650	1.26e5			4832	2432
pinta	DRSC14698	1.04e5	86602		4827	3728
CG13022	DRSC09902	79290			4384	2551
Root	DRSC15972	4.98e5	1.14e5		25346	3616
CG33964 + CG13175	DRSC06300	85052	62049		2320	4736
CG33964 + CG13175	DRSC06301	62957	52746		1702	4113
CG33964 + CG13175	DRSC07184	1.03e5	44704		2771	3696
CG10910	DRSC06007	1.26e5	6.61e5	65906	3521	36077
CG17658	DRSC04292	71875	56352		1344	5099
CG33310	DRSC01897	79584	58841		2218	5814
Parg	DRSC18696	1.77e5	94405		4258	3290
Vha100-2	DRSC14152	1.04e5	1.14e5		3895	4151
CG2145	DRSC19835	91512	68279		1985	1612
CG15308	DRSC17995	80903	2.24e5		2449	7909
sha	DRSC06331	99450	58576		2854	5069
etaTry	DRSC07613	77893	36796		1917	2979
dikar	DRSC09699	36163	56109		1664	1986
CG14543	DRSC14887	3.69e5	68928		21403	2371
Alg3	DRSC04700	1.18e5	42080		4804	1714
L2HGDH	DRSC02082	97073	54904		3866	2150
Acp26Ab	DRSC01856	1.30e5	84160		3404	7876
Marf	DRSC18329	82341	95472		1670	2291
CG9903	DRSC20213	68992	2.17e5		2922	9094
MED21	DRSC20932	2.05e5	3.99e5		6740	16205

Taken from above.
Result of Or67c [DRSC11242] in “firefly Hh reporter signal, replicate 3”: 51194
For “Renilla reference signal, replicate 2”, Reg-2 [DRSC08690] has 3136
stck [DRSC17070], firefly Hh reporter signal, replicate 2: 1.20e5
For “firefly Hh reporter signal, replicate 2”, Abd-B [DRSC14337] is entered as 52626
For “Renilla reference signal, replicate 2”, CG15212 [DRSC10212] has 3085
CG9903 [DRSC20213], Renilla reference signal, replicate 1 → 2922
